# Measurements: PubChem BioAssay AID445 (National Center for Advancing Translational Sciences (NCATS), 2006)
# The other results are listed elsewhere or left out. Shown are side measurements of this screen, not its main read-out; they come without a call. Compounds called inactive in the main read-out are mostly missing here. Words in brackets tell the shape of the fitted curve; partial curves, single points and poor fits give uncertain potencies.
# Assay: IkB Signaling
# Conditions: ABC-DLBCL IkBa-CBG/CBR dual luciferase ratio (green luciferase fused to IkBa over red control in OCI-Ly3 lymphoma cells), 4 h
# In short: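 In this assay, an IκBα–CBG68 fusion accumulates when IKK-driven degradation is blocked; native CBR normalizes for cell number. OCI-Ly3 cells were treated 4 h with compound and doxycycline, then green and red light read after Chroma-Glo addition.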
# [1] = measured here: control luc red channel unless noted
compound,measurement,setting,value
COc1ccccc1CNC(=O)c1ccc(-c2nc(CN3CCc4ccccc43)c(C)o2)cc1,AC50,[1],"6.31 µM [falling, partial curve]"
CCCCN(C(=O)Cn1nnc2ccccc21)C(C(=O)NCc1ccco1)c1ccncc1 (stereo unspecified),AC50,[1],"20 µM [falling, partial curve]"
CCc1ccc(NC(=O)C(=O)NCCc2csc(-c3ccc(C(F)(F)F)cc3)n2)cc1,AC50,[1],"10 µM [falling, partial curve]"
COc1cccc(C(=O)N2c3cc(C)ccc3C(C)(c3ccccc3)CC2(C)C)c1 (stereo unspecified),AC50,[1],"0.631 µM [falling, full curve]"
Cn1cccc1C(=O)NC(=O)COC(=O)c1ccccc1Sc1ccccc1C#N,AC50,[1],"7.94 µM [falling, partial curve]"
Cc1ccc(O)c(NC(=O)c2cccc(NC(=O)c3ccco3)c2)c1,AC50,[1],"25.1 µM [falling, single point]"
CCc1ccc(CNC(=O)c2cnc3sc4cc(OC)ccc4n3c2=O)cc1,AC50,[1],"3.98 µM [rising, full curve, poor fit]"
Cc1cccc(C)c1Nc1sc(C(=O)c2ccccc2)c(N)c1C(=O)Nc1ccc(F)cc1,AC50,[1],"3.16 µM [falling, full curve]"
CCOC(=O)c1ccc(N2C(=O)c3n[nH]c(-c4cccs4)c3C2c2ccc(C(C)(C)C)cc2)cc1 (stereo unspecified),AC50,[1],"20 µM [falling, single point]"
O=C(Nc1nc2n(n1)C(c1ccccc1)C=C(c1ccccc1)N2)c1ccc(Cl)c([N+](=O)[O-])c1 (stereo unspecified),AC50,[1],"39.8 µM [falling, single point]"
CCc1cccc(NC(=O)Cn2nc(-c3ccc(OC)cc3)ccc2=O)c1,AC50,[1],"39.8 µM [falling, single point]"
CCOc1ccccc1NC(=O)Cn1c(=O)n(Cc2ccccc2)c(=O)c2c(C)c(C)sc21,AC50,[1],"6.31 µM [falling, partial curve]"
Cc1ccc(NC(=O)c2c(C)oc3ccc(O)c(CN4CCCCCC4)c23)c(C)c1,AC50,[1],"25.1 µM [falling, partial curve]"
CC(C)OCCCNC(=O)c1cc2c(-c3ccc(Cl)cc3)nn(C)c2s1,AC50,[1],"2 µM [falling, full curve, poor fit]"
N#CCSc1nnc(COc2cccc3ccccc23)n1-c1ccccc1,AC50,measured here: IkB-luc green channel,"25.1 µM [falling, partial curve]"
same,AC50,measured here: control luc red channel,"12.6 µM [falling, partial curve]"
CC(C)OCCCn1c(=S)[nH]c2ccc(N3CCOCC3)cc2c1=O,AC50,[1],"12.6 µM [falling, partial curve]"
CC(C(=O)NCc1ccccc1F)n1ccc2cc(S(=O)(=O)N3CCCC3)ccc21 (stereo unspecified),AC50,[1],"15.8 µM [falling, partial curve, poor fit]"
CN1CCc2nc(SCCOc3ccccc3)c(C#N)cc2C1,AC50,[1],"25.1 µM [falling, single point]"
COc1ccc(Br)cc1C(=O)Nc1nc2ccc(F)cc2s1,AC50,[1],"0.0631 µM [falling, full curve]"
O=C(CNc1ccccc1)Nc1ccc(F)cc1,AC50,[1],"1.26 µM [falling, partial curve]"
Cc1cccc(-c2c3c(=O)n(C)c(=O)n(C)c3cn2-c2ccccc2O)c1,AC50,[1],"10 µM [falling, partial curve]"
Cc1nn(Cc2ccccc2)c(C)c1NC(=O)c1cc(-c2cccs2)on1,AC50,[1],"12.6 µM [falling, partial curve]"
CC1CN(C(=O)Nc2ccc(C(=O)NCc3cccc(F)c3)cc2)c2ccccc2S1 (stereo unspecified),AC50,[1],"12.6 µM [falling, partial curve]"
O=C(Nc1ccc(C(F)(F)F)cc1)C1CCCN(c2cnccn2)C1 (stereo unspecified),AC50,[1],"39.8 µM [falling, single point]"
COc1ccc(Nc2ncc3c(n2)CCN(Cc2cc(Br)cs2)C3)c(OC)c1,AC50,[1],"31.6 µM [falling, single point]"
Cn1cnc2cc(NC(=O)c3ccc(Cl)cc3)ccc21,AC50,[1],"20 µM [falling, partial curve]"
Cn1nc(-c2ccc(C(=O)Nc3ccc(F)cc3)cc2)c2ccccc2c1=O,AC50,[1],"39.8 µM [rising, single point] [measured here: IkB-luc green channel]"
COc1ccc2cc(-c3nc4ccc(C(=O)O)cc4[nH]3)c(=O)oc2c1,AC50,[1],"0.00631 µM [falling, full curve]"
C=Cc1ccc(Cn2nc(-c3ccc(C)c(S(=O)(=O)N(CC)CC)c3)ccc2=O)cc1,AC50,[1],"31.6 µM [falling, single point]"
CC(C)c1ccc(S(=O)(=O)NCc2ccc3c(c2)CCN3C(=O)c2ccccc2)cc1,AC50,[1],"6.31 µM [rising, single point]"
Brc1cc(Br)c2ncnc(N3CCCCC3)c2c1,AC50,[1],"25.1 µM [falling, partial curve]"
COc1ccc(-c2cc(C(F)(F)F)c(C#N)c(SCC(=O)Nc3ccc(F)cc3)n2)cc1,AC50,[1],"0.0251 µM [falling, full curve, poor fit]"
COCCn1c(SCc2nc3ccccc3s2)nc2ccccc21,AC50,[1],"15.8 µM [falling, partial curve]"
Cc1ccc(NCc2cccn2-c2nnc(N3CCC(C(=O)NC(C)C)CC3)s2)cc1,AC50,[1],"15.8 µM [falling, single point]"
Cc1ccc(S(=O)(=O)N2CCCc3cc(NS(=O)(=O)c4ccc(F)c(C)c4)ccc32)cc1,AC50,[1],"39.8 µM [falling, single point]"
O=S(=O)(NCCOC12CC3CC(CC(C3)C1)C2)c1cccc2nsnc12,AC50,[1],"12.6 µM [falling, partial curve]"
CCc1ccc(CNC(=O)c2ccc3c(c2)N=C(C)c2cc(C)ccc2S3)cc1,AC50,[1],"10 µM [falling, partial curve]"
CN(C)CCNC(=O)c1ccc(-n2c(-c3ccccc3)cc3c2CCCC3)cc1,AC50,[1],"7.94 µM [falling, partial curve]"
Cc1ccc(S(=O)(=O)C(CNC(=O)C(=O)NCc2ccc(Cl)cc2)c2cccs2)cc1 (stereo unspecified),AC50,[1],"31.6 µM [falling, single point]"
Cc1ccc(C(=O)NCCn2c(C)cc3ccccc32)cc1C,AC50,[1],"39.8 µM [falling, single point]"

# Some of the entries above, reformatted.
compound	measurement	setting	value
Cc1nn(Cc2ccccc2)c(C)c1NC(=O)c1cc(-c2cccs2)on1	AC50	[1]	12.6 µM [falling, partial curve]
CC1CN(C(=O)Nc2ccc(C(=O)NCc3cccc(F)c3)cc2)c2ccccc2S1 (stereo unspecified)	AC50	[1]	12.6 µM [falling, partial curve]
O=C(Nc1ccc(C(F)(F)F)cc1)C1CCCN(c2cnccn2)C1 (stereo unspecified)	AC50	[1]	39.8 µM [falling, single point]
COc1ccc(Nc2ncc3c(n2)CCN(Cc2cc(Br)cs2)C3)c(OC)c1	AC50	[1]	31.6 µM [falling, single point]
Cn1cnc2cc(NC(=O)c3ccc(Cl)cc3)ccc21	AC50	[1]	20 µM [falling, partial curve]
Cn1nc(-c2ccc(C(=O)Nc3ccc(F)cc3)cc2)c2ccccc2c1=O	AC50	[1]	39.8 µM [rising, single point] [measured here: IkB-luc green channel]
COc1ccc2cc(-c3nc4ccc(C(=O)O)cc4[nH]3)c(=O)oc2c1	AC50	[1]	0.00631 µM [falling, full curve]
